This test is described as follows: qHTS Assay for Lipid Storage Modulators in Drosophila S3 Cells.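 For cell number change: cells counted by Cell Tracker Red CMTPX staining in the red channel.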 The settings on record: BODIPY lipid droplet fluorescence, 18-24 h; for cell number change: measured here: cell count max response, cells fed with added oleic acid. The method in brief:
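Laser-scanning cytometry quantifies lipid droplet accumulation (500–530 nm total intensity; droplet/cell object ratio) in oleic acid-fed (400 uM added) Drosophila S3 cells treated with a concentration series. 20 uM Triacsin C defined 100% inhibition.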
On the technique in general: Quantitative high-throughput screening tests each substance at several concentrations.

[1] abbreviates: measured here: cell number channel AC50, cells fed with added oleic acid.
Where [2] appears, read: measured here: lipid fluorescence (Fed channel) AC50, cells fed with added oleic acid.

The text below walks through data of PubChem BioAssay AID2685 (National Center for Advancing Translational Sciences (NCATS), 2010).

The other results are listed elsewhere or left out. The main result of the screen is listed elsewhere. These columns were measured beside it and carry no call. Most of these compounds were active or inconclusive in the main read-out, so they are no random draw. Words in brackets tell the shape of the fitted curve; partial curves, single points and poor fits give uncertain potencies.

Regarding `CN(C)c1ccc(N=Nc2cccc3ccoc23)cc1`, the cell number change was -67.7%. Under setting [1], the AC50 – broadly, the concentration giving half of the maximal activity seen – is 3.66 µM [falling, full curve]. For the same compound, under setting [2], the AC50 is 5.17 µM [falling, full curve].
For `Cc1cc(NC(=O)CC2(CC(=O)O)CCCC2)n(C)n1`, the cell number change was -1.96%. Also, the AC50 under setting [2] was 32.6 µM [falling, partial curve, poor fit].
With `COc1ccccc1CNC(=O)[C@H](NC(=O)C1CCN(C(=O)[C@@H](N)CCSC)CC1)C(C)C`, the cell number change is 26.9%. In addition, under setting [2], the half-maximal activity concentration (AC50) is 16.4 µM [rising, single point].
Regarding `COc1ccccc1NC(=O)C(C)OC(=O)CCC1CCCCC1` (stereo not given), the cell number change was -4.44%. Under setting [2], the AC50 was 0.231 µM [falling, full curve, poor fit].
In the case of `O=C(Nc1ccc2oc(-c3cccnc3)nc2c1)c1cccnc1`, the cell number change is -19.4%. Also, the AC50 under setting [2] was 6.51 µM [rising, partial curve, poor fit].
With `NC(=O)Nc1cc(Cl)ccc1Cl`, the cell number change was -13.5%. Besides, under setting [2], the AC50 is 29.1 µM [falling, single point].
On to `O=S(=O)(Nc1ccc(S(=O)(=O)Nc2cccc3ccccc23)cc1)c1ccccc1`, for which the AC50 is, setting by setting: under setting [1], 2.31 µM [rising, partial curve]; under setting [2], 1.84 µM [rising, partial curve].
Consider `c1ccc(CN2CCC3(CCCc4ccccc43)CC2)cc1`, for which the cell number change was -0.346%. Further, the AC50 under setting [2] was 2.31 µM [rising, partial curve].
Regarding `O=Cc1ccc(-n2cc(C=O)c3ccccc32)cc1`, the cell number change was -14.1%. Besides, under setting [2], the AC50 is 18.4 µM [falling, single point].
Regarding `Cc1nn(C)cc1C(C(=O)NC1CCCCC1)N(C(=O)c1cnccn1)c1ccc(Oc2ccccc2)cc1` (stereo not given), the cell number change is -10.7%. The AC50 under setting [2] was 3.66 µM [rising, single point].
For the compound `COc1ccc(C(=O)NC2CCN(S(=O)(=O)c3ccc(C)cc3)CC2)cc1`, the cell number change is -0.246%. In addition, the AC50 under setting [2] was 3.26 µM [rising, single point].
For `Cc1cccc(-c2nc(CSCC(=O)NCc3cccs3)c(C)o2)c1`, the AC50 reads like this: under setting [1], 2.31 µM [rising, single point]; under setting [2], 1.84 µM [rising, partial curve].
As to `CCc1ccc(NC(=O)CNC(=O)[C@@H]2Cc3ccccc3CN2)cc1`, the cell number change stood at 3.07%. The AC50 under setting [2] was 4.11 µM [rising, single point].
Turning to `O=C(COC(=O)CCC(=O)c1ccc(F)cc1)Nc1cccc(S(=O)(=O)N2CCOCC2)c1`, the cell number change is -31.7%. Also, the AC50 under setting [1] was 0.103 µM [falling, full curve, poor fit]. For the same compound, under setting [2], the AC50 is 5.8 µM [falling, full curve].
`O=c1cc(CN2CCOCC2)c2ccc(O)c(O)c2o1`: the cell number change is 36.2%. The AC50 under setting [1] is 4.61 µM [rising, partial curve]. Moreover, the concentration at half-maximal activity (AC50) under setting [2] is 16.4 µM [rising, partial curve].
As for `O=S(=O)(Nc1nc2ccccc2nc1N1CCN(c2ccccn2)CC1)c1ccc(Cl)cc1`, the cell number change was -95.1%. Under setting [1], the AC50 was 29.1 µM [falling, single point].
Take `CCC(=O)N1CCc2cc(Br)cc(S(=O)(=O)CCC(=O)NCCc3ccccc3)c21`: the AC50 under setting [1] is 2.59 µM [rising, partial curve].
Take `CCc1ccc(-c2nc(CN3CCC(C(=O)NCc4ccccc4OC)CC3)c(C)o2)cc1`: under setting [2], the AC50 was 14.6 µM [falling, partial curve].
For `CC(C)C(=O)Nc1ccc(C(=O)Nc2nnc(C(C)C)s2)cc1`, the cell number change is -26.2%.
For the compound `CCc1cc(=O)oc2cc(OCC(=O)NCCCN3CCCC3=O)c(Cl)cc12`, the AC50 under setting [2] is 23.1 µM [falling, partial curve].
Consider `CC(=O)c1ccc(OCCCC(=O)OCC(=O)Nc2c(C)nn(-c3ccccc3)c2C)cc1`, for which the cell number change was determined as 18.4%.
With `COc1ccc(C(=O)NC(=S)NNC(=O)c2cccnc2)cc1`, the cell number change was -5.65%. Also, the AC50 under setting [2] was 0.58 µM [falling, single point].
Regarding `C=CCNC(=O)N[C@@H](CCSC)C(=O)OC`, the AC50 under setting [2] was 0.103 µM [rising, single point].
With `O=C(CSc1nnc(-c2ccncc2)n1-c1ccccc1)NCC1CCCO1` (stereo not given), the cell number change is 17.5%. Further, the AC50 under setting [2] is 6.51 µM [rising, single point].
For the compound `Cc1cc(C(=O)C(=O)N(C)C)c(C)n1-c1ccc(Cl)cc1`, the cell number change came out at 44.2%. Also, under setting [1], the AC50 was 14.6 µM [rising, single point]. In addition, the AC50 under setting [2] was 29.1 µM [rising, partial curve, poor fit].
As to `COc1cccc(CNC(=O)CCn2c(=O)oc3ccccc32)c1`, the cell number change was -71.2%. Also, under setting [1], the AC50 was 32.6 µM [falling, partial curve, poor fit].
For the compound `COc1cc(OC)cc(C(=O)N2CCC(N3CCCCCC3)CC2)c1`, the cell number change came to 20.3%. The AC50 under setting [2] was 0.00517 µM [rising, full curve, poor fit].
`O=C1OCCC1Sc1nnc(-c2cccnc2)n1-c1ccccc1F` (stereo not given): the cell number change came to 0.988%.
In the case of `Cc1cccc2c1-c1sc(C(=O)N3CCc4ccccc4C3)cc1CO2`, the cell number change was 18.3%. Besides, the AC50 under setting [2] was 11.6 µM [rising, partial curve, poor fit].
Take `COC(=O)C1(CC2CC(c3ccncc3)=NO2)CCN(C(=O)OC(C)(C)C)CC1` (stereo not given): the cell number change is -2.18%. Also, the AC50 under setting [2] was 0.00461 µM [falling, full curve, poor fit].
For the compound `C=CCSc1nnc(NC(=O)CSc2nnc(C)s2)s1`, the cell number change was determined as 17.9%.
Same read-out and setting: in the case of `Cc1cc(NC(=O)CSc2nc(Cc3ccc(O)cc3)c(C)[nH]2)no1` it was 1.81%.
Consider `CC(C)(C)NC(=O)c1ccc2c(c1)C1C3CCC(C3)C1C(c1ccccc1)N2` (stereo not given), for which the cell number change is -33.2%. Besides, under setting [1], the concentration at half-maximal activity (AC50) is 1.16 µM [falling, full curve, poor fit]. For the same compound, under setting [2], the AC50 is 11.6 µM [falling, partial curve, poor fit].
On to `COc1ccc(CCNC(=O)CNC(=O)Cn2cnc3sc(C)c(C)c3c2=O)cc1OC`, for which the cell number change is 48.2%. Also, the AC50 under setting [1] was 29.1 µM [rising, single point]. Besides, the AC50 under setting [2] was 4.61 µM [rising, full curve].
`CCCCNC(=S)NC(C)(C)CO`: the cell number change was -40.8%.
As for `O=C(CSc1nnc(Cc2ccsc2)o1)c1ccccc1`, the cell number change amounted to 19.1%. The AC50 under setting [2] was 9.2 µM [rising, single point].
Take `CCCCCOc1ccc(Cl)cc1CN1CCOCC1`: the cell number change is -30.6%. The AC50 under setting [1] was 5.8 µM [falling, full curve, poor fit]. Further, the AC50 under setting [2] is 20.6 µM [falling, single point].
Take `Clc1ccc(-c2csc(N/N=C\c3cccnc3)n2)cc1`: the cell number change was -14.6%. Further, the AC50 under setting [2] was 9.2 µM [rising, partial curve].
With `Cc1ccc(-n2c(SCC(=O)NCc3ccc4c(c3)OCO4)nnc2-c2cccnc2)c(C)c1`, the cell number change is -9.16%. Besides, under setting [2], the AC50 was 4.11 µM [falling, single point].
Take `O=C(c1c[nH]c2ccccc12)C(O)C(c1ccccc1)N1CCOCC1` (stereo not given): the cell number change turned out to be 18%. Further, the AC50 under setting [2] was 6.51 µM [rising, single point].
With `COc1ccc(-n2nc(C(=O)NCC(=O)NCc3ccco3)c3ccccc3c2=O)cc1Cl`, the cell number change is -27%. Moreover, under setting [2], the AC50 was 0.13 µM [falling, full curve, poor fit].
Turning to `CC(=O)Nc1ccc(S(=O)(=O)Nc2cc(S(=O)(=O)N3CCCCC3)ccc2O)cc1`, the cell number change is -9.64%.
Take `Cc1cc(C)cc(NC(=O)c2nccnc2C(=O)O)c1`: the cell number change was 9.69%. Also, the AC50 under setting [2] is 2.31 µM [rising, single point].
As to `CCOC(=O)c1cn2nc(Oc3cccc(F)c3)ccc2n1`, the cell number change is -26.1%. Further, the AC50 under setting [1] is 0.82 µM [falling, full curve, poor fit]. Besides, the AC50 under setting [2] was 29.1 µM [falling, partial curve, poor fit].
`Cc1ccc2nc(-c3ccc(NC(=O)CN4CCN(C(=O)c5ccco5)CC4)cc3)sc2c1`: the cell number change worked out at 13.1%. Further, under setting [2], the AC50 was 1.84 µM [rising, full curve].
As for `CCOc1ccc(C2C=C(c3ccc(C)cc3)Nc3nnnn32)cc1` (stereo not given), the cell number change is -17.2%. Also, the AC50 under setting [2] was 1.64 µM [falling, single point].
Take `Cn1c(=O)c2cn(-c3cccc4ccccc34)cc2n(C)c1=O`: the cell number change stood at 20.7%. In addition, the AC50 under setting [1] is 0.651 µM [rising, full curve, poor fit]. For the same compound, the AC50 under setting [2] is 10.3 µM [rising, partial curve].
On to `O=C(CC(=O)Nc1ccccc1[N+](=O)[O-])Nc1ccccc1[N+](=O)[O-]`, for which the cell number change is 26.1%.
Take `COc1ccc(C(=O)Nc2ccccc2N2CCN(C(=O)c3ccccc3)CC2)cc1Br`: the AC50 under setting [2] was 20.6 µM [falling, partial curve].
With `CC(Oc1ccc(C(=O)c2ccccc2)cc1)C(=O)Nc1ccc(S(N)(=O)=O)cc1` (stereo not given), the cell number change stood at 117%. The AC50 under setting [1] was 1.64 µM [falling, partial curve]. Further, under setting [2], the AC50 was 29.1 µM [rising, single point].
In the case of `COc1ccc(O)c(C(=O)c2cnn(C(=O)c3cccc(S(=O)(=O)N4CCOCC4)c3)c2)c1`, the cell number change is -9.56%. Besides, the AC50 under setting [1] is 0.184 µM [rising, full curve, poor fit].
Take `Cn1c2cc(B(O)O)sc2c2cnn(Cc3c(F)cccc3F)c(=O)c21`: the cell number change amounted to 9.85%. Under setting [2], the AC50 was 1.03 µM [rising, partial curve].
As to `COC(=O)COc1cccc(NC(=O)c2cc(OC)cc(OC)c2)c1`, the cell number change worked out at 135%. For the same compound, the AC50 under setting [1] is 20.6 µM [rising, partial curve]. The AC50 under setting [2] is 29.1 µM [rising, partial curve].
For the compound `COc1ccc(C)cc1NC(=O)CO/N=C(\N)CC(=O)NC1CCCCC1`, the cell number change is -9.51%. Also, the AC50 under setting [2] was 8.2 µM [falling, single point].
With `CC(=O)Nc1cccc(NC(=O)c2ccccc2OCc2c(C)noc2C)c1`, the cell number change is -50%. The AC50 under setting [1] is 0.651 µM [rising, partial curve, poor fit].
In the case of `CCc1c(C)nc(SCCOc2ccc(OC(C)C)cc2)[nH]c1=O`, the cell number change was -31%. In addition, the AC50 under setting [1] is 1.3 µM [falling, full curve, poor fit].
For the compound `CC(=O)Nc1ccc(S(=O)(=O)Nc2ccc(S(=O)(=O)Nc3nccs3)cc2)cc1`, the cell number change turned out to be 33.3%. In addition, the AC50 under setting [1] is 14.6 µM [rising, partial curve, poor fit]. The AC50 under setting [2] was 5.17 µM [falling, single point].
As for `COc1ccc(-c2n[nH]c(C)c2-c2ccc(Cl)cc2)c(O)c1`, the cell number change was -21.7%. Further, under setting [2], the AC50 was 29.1 µM [falling, single point].
